Reference: doi:10.1101/2024.04.25.591189
These are yes or no findings as the source states them, for the method shown. Binding seen in cells or lysates may run through a third protein. Some results given as binding are weak or reduced against the parent protein; the word gives no strength. Tags and fused reporters may be left off the sequences shown.

Target: T1, Mei5 (wild-type, S. cerevisiae SK1) (S. cerevisiae (endogenous in SK1 diploid cells)) (UniProt P32489)
T1 sequence: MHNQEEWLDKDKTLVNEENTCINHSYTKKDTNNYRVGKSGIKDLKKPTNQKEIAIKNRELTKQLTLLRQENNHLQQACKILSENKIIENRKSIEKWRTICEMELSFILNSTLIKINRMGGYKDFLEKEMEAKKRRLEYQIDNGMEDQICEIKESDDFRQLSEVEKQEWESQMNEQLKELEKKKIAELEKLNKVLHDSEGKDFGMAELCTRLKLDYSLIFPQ
Assay: co-IP

binding: binds
B1: Sae3-Flag (protein, UniProt P89114 1-91)
chain: MNYLETQLNKKQKQIQEYESMNGNLIKMFEQLSKEKKNDETPKKISSTYIKELKEYNELRDAGLRLAQIIADEKQCKIKDVFEEIGYSMKD
